Experimental data published in PubChem BioAssay AID298 (DTP/NCI, 2004).
The list does not hold the whole screen: it covers a few groups of compounds. Other doses and runs of a compound may be missing. T/C is the treated group as % of the vehicle group. Schedule codes are those of the source, read here as Q, the interval in days (D) or hours (H), X, the number of doses. Signs of the kind (2×) say how often a value occurs here. Some entries were tested several times; the values are given in rising order. Some values lie below zero, which means that the treated tumours became smaller. Some entries give survivors of the animals treated and no T/C: the source holds a T/C of zero for them, seemingly a mark for toxic or unscored doses. Counts of survivors are from the toxicity check, whose day is not always given; animals may have died later.

Tested on: MX-1 breast xenograft, intrarenal, nude mice, tumor weight
Assay: NCI In Vivo Anticancer Drug Screen. Data for tumor model Human Mammary Carcinoma MX-1 Xenograft (intrarenal inoculation) in NU/NU BALB/C (nude) mice
Conditions: T/C endpoint: mean tumor weight change, higher T/C = larger tumour; for T/C: evaluated on day 11
Procedure: The antitumor activity of compounds was measured in mice bearing transplantable tumors. Survival or tumor size were measured and the results are expressed as the measurement made in the treated group (T) divided by the measurement made in the vehicle treated control group (C). The tumor model used in this assay is Human Mammary Carcinoma MX-1 Xenograft (intrarenal inoculation) in NU/NU BALB/C (nude) mice

[1] = dose: 150.0 mg/kg/injection, schedule: Q04DX003 (sc), vehicle: water

Cc1ccc(N(CCBr)CCBr)cc1
T/C (dose: 18.75 mg/kg/injection, schedule: Q04DX003 (sc), vehicle: Klucel (hydroxypropylcellulose) (HPC)): -6 % of control
T/C (dose: 37.5 mg/kg/injection, schedule: Q04DX003 (sc), vehicle: Klucel (hydroxypropylcellulose) (HPC)): -100 % of control
survivor count (dose: 75.0 mg/kg/injection, schedule: Q04DX003 (sc), vehicle: Klucel (hydroxypropylcellulose) (HPC)): 3 of 6 on day 11
survivor count (dose: 150.0 mg/kg/injection, schedule: Q04DX003 (sc), vehicle: Klucel (hydroxypropylcellulose) (HPC)): 0 of 6 on day 11

CC1=CC(=O)C(N(CCCl)CCCl)=CC1=O
T/C (dose: 0.75 mg/kg/injection, schedule: Q01DX010 (sc), vehicle: Klucel (hydroxypropylcellulose) (HPC)): -35 % of control
T/C (dose: 1.5 mg/kg/injection, schedule: Q01DX010 (sc), vehicle: Klucel (hydroxypropylcellulose) (HPC)): -20 % of control
T/C (dose: 3.0 mg/kg/injection, schedule: Q01DX010 (sc), vehicle: Klucel (hydroxypropylcellulose) (HPC)): -58 % of control

O=NN(CCSCCCl)C(=O)NC1CCCCC1
T/C (dose: 300.0 mg/kg/injection, schedule: Q04DX003 (sc), vehicle: saline + Tween-80 + alcohol): 12 % of control
T/C (dose: 600.0 mg/kg/injection, schedule: Q04DX003 (sc), vehicle: saline + Tween-80 + alcohol): 2 % of control
T/C (dose: 900.0 mg/kg/injection, schedule: Q04DX003 (sc), vehicle: saline + Tween-80 + alcohol): -100 % of control

NC1CCCCC1.NP(=O)(O)N(CCCl)CCCl
T/C (dose: 75.0 mg/kg/injection, schedule: Q04DX003 (sc), vehicle: water): 12 and 13 % of control
T/C [1]: 2 % of control
survivor count [1]: 1 of 3 on day 11
survivor count (dose: 300.0 mg/kg/injection, schedule: Q04DX003 (sc), vehicle: water): 0 of 3 on day 11 and 0 of 6 on day 11
survivor count (dose: 600.0 mg/kg/injection, schedule: Q04DX003 (sc), vehicle: water): 0 of 6 on day 11

NCCN(CCCl)CCCl
T/C (dose: 0.58 mg/kg/injection, schedule: Q04DX003 (ip), vehicle: saline): 1 % of control
T/C (dose: 0.96 mg/kg/injection, schedule: Q04DX003 (ip), vehicle: saline): 6 % of control
T/C (dose: 1.6 mg/kg/injection, schedule: Q04DX003 (ip), vehicle: saline): 4 % of control (2×)
